Measured values: patent publication US8834921B2, “Sustained-release liposomal anesthetic compositions” (Pacira Pharmaceuticals, Inc., priority 1997, dated 2014)
Where a name gives a salt, the structure may show the parent alone. Some results were stated once for a whole list of compounds, not compound by compound.

Tested on: guinea pigs
Experiment: Infiltration anesthesia, modified intracutaneous wheal pin-prick model
Format: in vivo
Details: following intracutaneous administration

Compound: CCCCN1CCCCC1C(=O)Nc1c(C)cccc1C (stereo not shown) [Bupivacaine hydrochloride]
- time to complete local anesthesia (no response condition): ≤ 15 min
